The source of these data is patent US20140342392A1, “OPTIMIZED INSECT-BASED EX VIVO MODEL FOR TESTING BLOOD-BRAIN BARRIER PENETRATION AND METHOD FOR EXPOSING INSECT BRAIN TO CHEMICAL COMPOUNDS” (ENTOMOPHARM ApS, priority 2011, published 2014).

Where two headings read alike, the source gives them in different places.

Holding throughout (conditions): 5 min, 30 uM
For series [1], the system named is locust brain (blood-brain barrier). On the procedure: (§1) 1. […] The insects may be obtained from local suppliers or bred in house. The grasshoppers were reared under crowded conditions at 28° C. and a 12:12 dark:light photocycle and fed fresh grass and bran. Before experiments the grasshoppers were fed ecologically cultivated wheat for two weeks. Animals used are adult males (in some experiments females) between two to four weeks after adult emergence. […] After various times of exposure the preparation is washed in saline and the brain is dissected under microscope with fine forceps. The neural lamella surrounding the brain is removed in saline and the brain is then UD in saline, centrifuged and the supernatant frozen until analyses. Drug concentration is analysed by HPLC, LC/MSMS or other methods.

For series [2] the test system is unchanged. The source holds these as a separate data set.
The test system is the same in series [3]. On the procedure: as §1, with “2.” for “1.”, “The neural lamella surrounding the brain is removed in saline and the brain is then UD in saline, centrifuged and the supernatant frozen until analyses.” left out
The source holds these as a separate data set.

Take `CC(C)NCC(O)COc1ccc(CC(N)=O)cc1` (stereo not drawn) [atenolol]: the values for the average uptake in series [1], in series [2] and in series [3] were 0.74 pmol/brain, 0.39 pmol/brain and 3.74 pmol/brain, respectively.
